Test results from patent US20240383950A1, “RECOMBINANT GLYCAN BINDING PROTEINS AND ITS USE” (UNICHEM LABORATORIES LIMITED, priority 2021, published 2024).
Where two headings read alike, the source gives them in different places.

Experiment: N terminal methionine content by Reverse Phase HPLC

B1: SEQ ID NO. 4: SEQ ID NO. 2 re-engineered: Serine at 1st, Glycine at 76th, Serine added at 142nd and Cysteine at 143rd position (protein)
chain: SYKITVRVYQTNPDAFFHPVEKTVWKYANGGTWTITDDQHVLTMGGSGTSGTLRFHADNGESFTATFGVHNYKRWGDIVTNLAADETGMVINQQYYSQKNREEARERQLSNYQVKNAKGRNFQIVYTEAEGNDLHANLIIGSC
In the case of B1, the “N Terminal Methionine (%)” value is reported as 1.25%.

B2: SEQ ID NO. 2: recombinant glycan binding protein, variant of Sclerotium Rolfsii Lectin, disclosed in Indian Patent Application 350/MUM/2009 (protein)
chain: TYKITVRVYQTNPDAFFHPVEKTVWKYANGGTWTITDDQHVLTMGGSGTSGTLRFHADNGESFTATFGVHNYKRWCDIVTNLAADETGMVINQQYYSQKNREEARERQLSNYQVKNAKGRNFQIVYTEAEGNDLHANLIIG
For B2, the “N Terminal Methionine (%)” value was 13.18% and the “N Terminal Methionine (%)” value (listed as SEQ ID NO:2) was “more than 13%”.

B3: SEQ ID NO. 3: SEQ ID NO. 2 re-engineered: Serine at 1st position, Glycine at 76th position, Cysteine added at carboxy terminal end (protein)
chain: SYKITVRVYQTNPDAFFHPVEKTVWKYANGGTWTITDDQHVLTMGGSGTSGTLRFHADNGESFTATFGVHNYKRWGDIVTNLAADETGMVINQQYYSQKNREEARERQLSNYQVKNAKGRNFQIVYTEAEGNDLHANLIIGC
For B3, the “N Terminal Methionine (%)” value was 1.07%.
